Data: patent publication US20220144927A1 (SUMITOMO DAINIPPON PHARMA, published 2022)
Changes are numbered by the printed parent chain. No constants are given. Whether binding was seen depends on the method and setting. Some binding calls cover weakened binding; strength is not graded here.

By UniProt entry, the sequences of proteins in these tests, tags left out. Residues count along the entry.
UniProt P98088, residues 28-5654: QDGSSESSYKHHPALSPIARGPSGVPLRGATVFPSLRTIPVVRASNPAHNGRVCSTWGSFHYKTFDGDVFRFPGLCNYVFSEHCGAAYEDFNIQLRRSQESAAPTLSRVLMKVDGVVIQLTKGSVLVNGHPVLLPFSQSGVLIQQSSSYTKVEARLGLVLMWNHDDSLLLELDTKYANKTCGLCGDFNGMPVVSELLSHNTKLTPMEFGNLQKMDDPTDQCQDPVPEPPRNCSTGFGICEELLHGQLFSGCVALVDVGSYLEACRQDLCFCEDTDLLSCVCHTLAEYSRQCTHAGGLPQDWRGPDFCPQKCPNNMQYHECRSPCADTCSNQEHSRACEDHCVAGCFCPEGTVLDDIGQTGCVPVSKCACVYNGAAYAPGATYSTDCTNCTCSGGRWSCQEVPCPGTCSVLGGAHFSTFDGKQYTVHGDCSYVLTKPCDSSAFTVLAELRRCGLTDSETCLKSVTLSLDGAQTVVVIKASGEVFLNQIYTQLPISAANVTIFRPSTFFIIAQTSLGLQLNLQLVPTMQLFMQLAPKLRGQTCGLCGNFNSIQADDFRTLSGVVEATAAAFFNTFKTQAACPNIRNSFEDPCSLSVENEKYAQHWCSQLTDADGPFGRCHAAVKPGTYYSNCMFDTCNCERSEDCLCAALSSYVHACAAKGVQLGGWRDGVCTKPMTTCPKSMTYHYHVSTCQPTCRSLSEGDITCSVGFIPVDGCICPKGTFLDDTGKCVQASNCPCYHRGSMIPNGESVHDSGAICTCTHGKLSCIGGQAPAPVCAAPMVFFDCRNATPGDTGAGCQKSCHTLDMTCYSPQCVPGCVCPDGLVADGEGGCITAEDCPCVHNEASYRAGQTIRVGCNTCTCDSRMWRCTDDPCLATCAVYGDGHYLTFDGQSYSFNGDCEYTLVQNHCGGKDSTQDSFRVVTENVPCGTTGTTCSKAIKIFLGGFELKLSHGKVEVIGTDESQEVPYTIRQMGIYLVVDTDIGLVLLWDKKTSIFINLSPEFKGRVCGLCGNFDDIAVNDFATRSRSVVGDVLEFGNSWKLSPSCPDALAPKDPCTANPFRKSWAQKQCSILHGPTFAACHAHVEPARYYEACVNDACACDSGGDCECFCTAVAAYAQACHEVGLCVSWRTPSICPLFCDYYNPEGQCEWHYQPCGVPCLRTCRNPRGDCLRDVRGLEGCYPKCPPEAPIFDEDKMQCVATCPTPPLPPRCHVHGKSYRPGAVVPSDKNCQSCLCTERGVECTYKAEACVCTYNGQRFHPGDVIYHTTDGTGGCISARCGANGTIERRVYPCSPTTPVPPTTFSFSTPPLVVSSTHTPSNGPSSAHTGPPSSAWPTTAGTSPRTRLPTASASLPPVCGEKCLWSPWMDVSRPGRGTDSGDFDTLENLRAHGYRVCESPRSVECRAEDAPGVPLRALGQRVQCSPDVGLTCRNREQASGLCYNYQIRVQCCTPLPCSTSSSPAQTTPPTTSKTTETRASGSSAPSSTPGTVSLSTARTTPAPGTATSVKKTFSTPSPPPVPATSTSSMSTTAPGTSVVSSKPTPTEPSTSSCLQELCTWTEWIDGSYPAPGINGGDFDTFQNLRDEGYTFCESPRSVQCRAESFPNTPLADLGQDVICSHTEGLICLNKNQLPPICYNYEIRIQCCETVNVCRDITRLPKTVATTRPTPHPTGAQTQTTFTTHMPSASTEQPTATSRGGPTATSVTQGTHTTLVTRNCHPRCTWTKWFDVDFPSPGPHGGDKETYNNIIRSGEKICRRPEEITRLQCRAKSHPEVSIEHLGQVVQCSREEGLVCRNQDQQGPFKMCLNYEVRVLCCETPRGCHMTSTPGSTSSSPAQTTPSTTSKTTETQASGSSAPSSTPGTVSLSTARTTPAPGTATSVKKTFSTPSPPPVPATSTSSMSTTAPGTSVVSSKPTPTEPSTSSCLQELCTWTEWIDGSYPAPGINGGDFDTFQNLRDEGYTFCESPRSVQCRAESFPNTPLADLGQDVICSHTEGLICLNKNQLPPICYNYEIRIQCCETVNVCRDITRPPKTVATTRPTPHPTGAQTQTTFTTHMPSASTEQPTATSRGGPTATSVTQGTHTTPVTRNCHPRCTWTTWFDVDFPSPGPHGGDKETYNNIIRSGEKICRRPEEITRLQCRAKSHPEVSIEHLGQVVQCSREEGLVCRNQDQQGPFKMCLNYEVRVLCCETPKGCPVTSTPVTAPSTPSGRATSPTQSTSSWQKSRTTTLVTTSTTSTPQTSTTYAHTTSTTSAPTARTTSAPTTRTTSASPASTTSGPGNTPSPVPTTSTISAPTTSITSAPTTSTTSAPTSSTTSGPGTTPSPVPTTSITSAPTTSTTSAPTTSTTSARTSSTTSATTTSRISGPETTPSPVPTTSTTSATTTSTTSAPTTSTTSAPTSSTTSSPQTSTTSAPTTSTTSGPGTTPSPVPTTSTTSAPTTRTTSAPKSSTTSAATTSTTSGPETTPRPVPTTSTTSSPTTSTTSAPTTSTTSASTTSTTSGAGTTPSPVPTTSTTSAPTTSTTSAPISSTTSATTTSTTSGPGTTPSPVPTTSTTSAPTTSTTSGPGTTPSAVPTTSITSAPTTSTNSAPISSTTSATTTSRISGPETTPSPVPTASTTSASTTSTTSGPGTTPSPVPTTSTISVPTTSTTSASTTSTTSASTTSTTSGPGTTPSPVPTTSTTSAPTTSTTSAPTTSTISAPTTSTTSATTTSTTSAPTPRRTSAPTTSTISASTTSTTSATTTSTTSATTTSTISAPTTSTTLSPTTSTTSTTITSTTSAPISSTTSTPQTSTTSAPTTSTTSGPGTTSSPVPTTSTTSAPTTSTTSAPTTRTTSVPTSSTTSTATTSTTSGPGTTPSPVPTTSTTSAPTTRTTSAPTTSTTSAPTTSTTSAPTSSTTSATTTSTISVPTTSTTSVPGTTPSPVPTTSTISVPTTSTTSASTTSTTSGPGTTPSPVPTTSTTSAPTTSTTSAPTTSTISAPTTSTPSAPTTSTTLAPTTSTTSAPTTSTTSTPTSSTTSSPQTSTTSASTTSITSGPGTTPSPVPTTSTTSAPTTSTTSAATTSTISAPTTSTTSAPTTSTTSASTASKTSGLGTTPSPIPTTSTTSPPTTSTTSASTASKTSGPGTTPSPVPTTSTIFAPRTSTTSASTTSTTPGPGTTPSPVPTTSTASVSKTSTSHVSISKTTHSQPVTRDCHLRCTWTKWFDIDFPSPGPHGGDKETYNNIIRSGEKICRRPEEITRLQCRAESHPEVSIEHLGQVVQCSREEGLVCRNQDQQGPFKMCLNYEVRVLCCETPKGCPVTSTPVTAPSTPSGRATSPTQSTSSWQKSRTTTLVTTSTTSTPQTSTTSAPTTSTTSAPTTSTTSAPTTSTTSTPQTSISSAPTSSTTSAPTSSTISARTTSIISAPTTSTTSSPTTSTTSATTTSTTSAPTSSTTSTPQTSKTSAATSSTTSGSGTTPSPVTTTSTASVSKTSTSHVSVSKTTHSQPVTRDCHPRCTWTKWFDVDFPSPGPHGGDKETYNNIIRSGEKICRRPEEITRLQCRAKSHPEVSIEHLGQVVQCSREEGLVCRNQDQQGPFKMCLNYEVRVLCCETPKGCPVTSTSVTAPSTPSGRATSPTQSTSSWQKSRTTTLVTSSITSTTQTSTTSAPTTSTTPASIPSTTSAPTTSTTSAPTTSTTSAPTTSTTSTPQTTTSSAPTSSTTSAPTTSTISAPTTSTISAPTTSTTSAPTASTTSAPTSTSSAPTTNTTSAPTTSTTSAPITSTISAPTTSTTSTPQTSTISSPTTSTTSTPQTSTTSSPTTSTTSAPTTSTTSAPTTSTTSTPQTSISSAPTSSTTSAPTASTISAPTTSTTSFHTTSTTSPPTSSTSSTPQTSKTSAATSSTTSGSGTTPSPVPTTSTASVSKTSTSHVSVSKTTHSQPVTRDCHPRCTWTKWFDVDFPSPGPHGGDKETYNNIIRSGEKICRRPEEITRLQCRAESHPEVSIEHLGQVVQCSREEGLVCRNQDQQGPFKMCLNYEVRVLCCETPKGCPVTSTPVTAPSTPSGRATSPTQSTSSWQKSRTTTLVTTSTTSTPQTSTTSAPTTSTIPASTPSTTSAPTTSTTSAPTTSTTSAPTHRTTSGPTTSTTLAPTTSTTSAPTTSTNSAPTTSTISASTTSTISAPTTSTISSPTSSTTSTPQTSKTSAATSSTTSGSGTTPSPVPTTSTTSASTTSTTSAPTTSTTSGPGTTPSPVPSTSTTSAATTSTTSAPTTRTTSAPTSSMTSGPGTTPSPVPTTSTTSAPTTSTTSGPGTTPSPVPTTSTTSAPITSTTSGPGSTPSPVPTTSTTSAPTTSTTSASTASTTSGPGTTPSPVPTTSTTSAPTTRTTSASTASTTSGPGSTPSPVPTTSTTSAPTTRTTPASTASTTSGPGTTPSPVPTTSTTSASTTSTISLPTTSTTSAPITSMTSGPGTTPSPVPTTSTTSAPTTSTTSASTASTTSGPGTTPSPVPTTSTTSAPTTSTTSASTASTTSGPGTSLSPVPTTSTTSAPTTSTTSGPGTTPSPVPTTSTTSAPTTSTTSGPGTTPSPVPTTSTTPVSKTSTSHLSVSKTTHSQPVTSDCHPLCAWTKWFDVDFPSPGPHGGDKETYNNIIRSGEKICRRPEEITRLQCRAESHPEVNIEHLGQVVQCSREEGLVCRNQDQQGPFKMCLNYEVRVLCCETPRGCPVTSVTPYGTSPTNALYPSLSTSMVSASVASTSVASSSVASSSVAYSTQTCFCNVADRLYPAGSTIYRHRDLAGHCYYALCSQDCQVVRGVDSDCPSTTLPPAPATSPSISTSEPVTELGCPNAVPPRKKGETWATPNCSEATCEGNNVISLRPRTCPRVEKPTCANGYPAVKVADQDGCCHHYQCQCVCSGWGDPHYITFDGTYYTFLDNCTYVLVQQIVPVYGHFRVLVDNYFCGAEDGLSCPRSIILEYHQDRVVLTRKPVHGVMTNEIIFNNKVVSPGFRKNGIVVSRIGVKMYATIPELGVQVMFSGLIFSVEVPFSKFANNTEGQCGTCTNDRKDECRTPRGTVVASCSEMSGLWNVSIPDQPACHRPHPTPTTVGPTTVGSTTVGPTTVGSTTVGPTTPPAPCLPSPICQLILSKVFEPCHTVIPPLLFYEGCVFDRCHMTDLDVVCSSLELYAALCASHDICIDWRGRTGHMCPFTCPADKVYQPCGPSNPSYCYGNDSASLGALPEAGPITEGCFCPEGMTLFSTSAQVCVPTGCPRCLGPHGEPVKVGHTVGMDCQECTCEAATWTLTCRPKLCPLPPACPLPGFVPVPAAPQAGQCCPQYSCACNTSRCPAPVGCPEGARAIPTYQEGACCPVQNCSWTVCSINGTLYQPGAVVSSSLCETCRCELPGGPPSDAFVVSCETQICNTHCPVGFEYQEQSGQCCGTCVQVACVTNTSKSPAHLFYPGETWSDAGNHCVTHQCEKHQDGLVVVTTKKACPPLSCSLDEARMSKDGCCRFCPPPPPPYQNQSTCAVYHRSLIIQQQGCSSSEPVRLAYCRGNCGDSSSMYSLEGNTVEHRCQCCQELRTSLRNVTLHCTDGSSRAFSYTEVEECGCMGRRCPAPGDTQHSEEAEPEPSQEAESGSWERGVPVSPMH

B1: antibody 1 (antibody, V domains shown)
VH: EVQLLESGGGLVQPGGSLRLSCAASGFTFSNYGMSWVRQAPGKGLEWVSTISNSGRYTYFPDSVKGRFTISRDNSKNTLYLQMNSLRAEDTALYYCTRHLDYANYDAMDYWGQGTLVTVSS
VL: DIVMTQSPSSLSASVGDRVTITCRASKSVTTSDFSYMHWYQQKPGKAPKLLIYLASNLESGVPSRFSGSGSGTDFTLTISSLQPEDFATYYCQHSREFPWTFGGGTKVEIK
notes: Humanized antibody of the invention; also called H01L01
B2: antibody 2 (antibody, V domains shown)
VH: B1 VH
VL: B1 VL with I2V, S10T, K46Q, G104Q, V108L
notes: Humanized antibody of the invention; also called H01L02
B3: antibody 3 (antibody, V domains shown)
VH: B1 VH
VL: B1 VL with V3Q, A47S, T76S
notes: Humanized antibody of the invention; also called H01L03
B4: antibody 5 (antibody, V domains shown)
VH: B1 VH with E1L, L5V, L11V, Q13R, V37I, S75A, T78S
VL: B1 VL
notes: Humanized antibody of the invention; also called H02L01
B5: antibody 6 (antibody, V domains shown)
VH: B1 VH with E1L, L5V, L11V, Q13R, V37I, S75A, T78S
VL: B1 VL with I2V, S10T, K46Q, G104Q, V108L
notes: Humanized antibody of the invention; also called H02L02
B6: antibody 7 (antibody, V domains shown)
VH: B1 VH with E1L, L5V, L11V, Q13R, V37I, S75A, T78S
VL: B1 VL with V3Q, A47S, T76S
notes: Humanized antibody of the invention; also called H02L03
B7: antibody 9 (antibody, V domains shown)
VH: B1 VH with E1L, L5V, L11V, G16R, S49A, L93V
VL: B1 VL
notes: Humanized antibody of the invention; also called H03L01
B8: antibody 10 (antibody, V domains shown)
VH: B1 VH with E1L, L5V, L11V, G16R, S49A, L93V
VL: B1 VL with I2V, S10T, K46Q, G104Q, V108L
notes: Humanized antibody of the invention; also called H03L02
B9: antibody 11 (antibody, V domains shown)
VH: B1 VH with E1L, L5V, L11V, G16R, S49A, L93V
VL: B1 VL with V3Q, A47S, T76S
notes: Humanized antibody of the invention; also called H03L03
B10: antibody 13 (antibody, V domains shown)
VH: B1 VH with A24V, K76R, S85T, L93V, L116P
VL: B1 VL
notes: Humanized antibody of the invention; also called H04L01
B11: antibody 14 (antibody, V domains shown)
VH: B1 VH with A24V, K76R, S85T, L93V, L116P
VL: B1 VL with I2V, S10T, K46Q, G104Q, V108L
notes: Humanized antibody of the invention; also called H04L02
B12: antibody 15 (antibody, V domains shown)
VH: B1 VH with A24V, K76R, S85T, L93V, L116P
VL: B1 VL with V3Q, A47S, T76S
notes: Humanized antibody of the invention; also called H04L03
B13: antibody 4 (antibody, V domains shown)
VH: B1 VH
VL: DIVMTQSPDSLAVSLGERATINCKASKSVTTSDFSYLHWYQQKPGQPPKLLIYLASNLESGVPDRFSGSGSGTDFTLTISSLQAEDVAVYYCQHSREFPWTFGGGTKLEIK
notes: Humanized antibody of the invention; also called H01L04
B14: antibody 8 (antibody, V domains shown)
VH: B1 VH with E1L, L5V, L11V, Q13R, V37I, S75A, T78S
VL: B13 VL
notes: Humanized antibody of the invention; also called H02L04
B15: antibody 12 (antibody, V domains shown)
VH: B1 VH with E1L, L5V, L11V, G16R, S49A, L93V
VL: B13 VL
notes: Humanized antibody of the invention; also called H03L04
B16: antibody 16 (antibody, V domains shown)
VH: B1 VH with A24V, K76R, S85T, L93V, L116P
VL: B13 VL
notes: Humanized antibody of the invention; also called H04L04

Biological target: T1, mucin subtype 5AC (human, UniProt P98088 28-5654, limits assumed)
T1 construct: Not a purified recombinant protein; also called MUC5AC; crude extract antigen solution
Test: ELISA on SW1990 tumor antigen preparations

binding, binds:
B1, B2, B3, B4, B5, B6, B7, B8, B9, B10, B11, B12, B13, B14, B15, B16
